The inconclusive results got no clear call from the source; some entries with a clear call stand among them for comparison. For some assays here: Potencies of inconclusive entries are doubtful fits and often do not repeat. Active and inactive are the calls of the source. Rule for the calls: active = hit-call score of the fitted dose curve at least 0.9, where 1 is the maximum; inconclusive = response in the unintended direction; inactive = score below 0.9. Positions of bridges follow the written chain, without caps; N, C: chain ends. Residues, ends and D or L forms follow the SMILES beside them.
What was measured:
[1] = TOX21_p53_BLA_p3_viability: Viability Assessment in the Tox21 HCT-116 p53 Agonism Beta-lactamase Assay, Phase 3 (AID 2283593);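 note: cells exposed to compound for 16 h before reading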
Method in brief: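 HCT116 cells, 4000/well, dosed 5 h after plating by pin transfer (217-fold dilution from DMSO stock) and incubated 16 h at 37C, 5% CO2. Viability read as ATP luminescence with CellTiter-Glo after 30 min at room temperature.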

The chains behind the UniProt entries cited, without tags or fusion partners.
UniProt P04637, whole entry, looked up: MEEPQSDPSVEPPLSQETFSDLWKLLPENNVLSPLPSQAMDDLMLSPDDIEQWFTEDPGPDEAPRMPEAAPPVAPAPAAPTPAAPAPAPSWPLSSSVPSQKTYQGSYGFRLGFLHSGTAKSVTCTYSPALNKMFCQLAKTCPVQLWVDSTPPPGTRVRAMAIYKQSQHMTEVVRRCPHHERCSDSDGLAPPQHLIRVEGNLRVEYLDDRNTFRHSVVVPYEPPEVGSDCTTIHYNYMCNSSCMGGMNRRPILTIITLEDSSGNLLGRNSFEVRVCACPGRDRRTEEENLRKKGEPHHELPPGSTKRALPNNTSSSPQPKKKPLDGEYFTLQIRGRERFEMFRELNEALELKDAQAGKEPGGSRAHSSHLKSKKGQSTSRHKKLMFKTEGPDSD

[2] = target: Cellular tumor antigen p53 (Homo sapiens) (UniProt P04637); test: TOX21_p53_BLA_p3_ratio: Tox21 HCT-116 p53 Agonism Beta-lactamase Assay, Ratio, Phase 3 (AID 2283596)
Method in brief: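 HCT116 p53-bla cells (4000/well) given compound in DMSO (217-fold dilution) after 5 h, incubated 16 h at 37C. CCF4-AM substrate 2 h at room temperature; 460/530 nm emission ratio, gain fitted against DMSO.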

[3] = TOX21_p53_BLA_p4_viability: Viability Assessment in the Tox21 HCT-116 p53 Agonism Beta-lactamase Assay, Phase 4 (AID 2283597);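 note: hits lower the luminescence signal meaning cytotoxicity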
Method in brief: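 Luminescent ATP readout (CellTiter-Glo, 30 min, room temperature) in the same wells as the p53 bla ratio. HCT116 cells were treated for 16 h at 37C with DMSO-dissolved compounds.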

[4] = target: Cellular tumor antigen p53 (Homo sapiens) (UniProt P04637); test: TOX21_p53_BLA_p5_ratio: Tox21 HCT-116 p53 Agonism Beta-lactamase Assay, Ratio, Phase 5 (AID 2283599)
Method in brief: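 HCT-116 p53-bla cells (4000/well) plated 5 h, dosed with compound (217-fold DMSO dilution) for 16 h at 37 C; CCF4-AM substrate 2 h at room temperature. Activity is the 460/530 nm emission ratio (405 nm excitation), fitted in gain-of-signal direction versus DMSO.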

[5] = TOX21_p53_BLA_p5_viability: Viability Assessment in the Tox21 HCT-116 p53 Agonism Beta-lactamase Assay, Phase 5 (AID 2283600)
Method in brief: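 Seeded cells (4000/well) settle 5 h before compound addition. Plates then incubate 16 h at 37C, receive FRET substrate for 2 h, and finally CellTiter-Glo, with luminescence measured after a 30 min room-temperature incubation.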

[6] = target: Cellular tumor antigen p53 (Homo sapiens) (UniProt P04637); test: TOX21_p53_BLA_p4_ratio: Tox21 HCT-116 p53 Agonism Beta-lactamase Assay, Ratio, Phase 4 (AID 2283601)
Method in brief: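 HCT-116 p53 beta-lactamase reporter cells (4000/well) preincubated 5 h, then compound (217-fold dilution of DMSO stock) for 16 h at 37C. CCF4-AM substrate added 2 h at room temperature; 460/530 nm emission ratio fitted upward versus DMSO.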

CCC(C)(C)C
AC50 [1]: inconclusive: 48.4 µM | AC50 [2]: inconclusive: 48.4 µM | outcome [3]: inactive | AC50 [4]: inconclusive: 48.4 µM | AC50 [5]: inconclusive: 48.4 µM | outcome [6]: inactive

NCCCC[C@H](NC(=O)[C@@H]1CCCN1C(=O)[C@@H]1CSSC[C@H](N)C(=O)N[C@@H](Cc2ccccc2)C(=O)N[C@@H](Cc2ccccc2)C(=O)N[C@@H](CCC(N)=O)C(=O)N[C@@H](CC(N)=O)C(=O)N1)C(=O)NCC(N)=O (H-CFFQNCPKG-NH2; disulfide 1-6)
outcome [1]: inactive | AC50 [2]: inconclusive: 23 µM | outcome [3]: inactive | outcome [4]: inactive

CCCCOCCOC(=O)COc1cc(Cl)c(Cl)cc1Cl
AC50 [1]: inconclusive: 46.1 µM | AC50 [2]: inconclusive: 73 µM | outcome [3]: inactive | AC50 [4]: inconclusive: 84.1 µM | AC50 [5]: inconclusive: 46.1 µM

COc1cc(C(=S)N2CCOCC2)cc(OC)c1OC
AC50 [1]: inconclusive: 23 µM | AC50 [2]: inconclusive: 23 µM | AC50 [3]: inconclusive: 23 µM | AC50 [4]: inconclusive: 23 µM | AC50 [5]: inconclusive: 23 µM

CCC(C)(C)OC(=O)N[C@@H](Cc1c[nH]c2ccccc12)C(=O)N[C@@H](CCSC)C(=O)N[C@@H](CC(=O)O)C(=O)N[C@@H](Cc1ccccc1)C(N)=O
AC50 [1]: inconclusive: 23 µM | AC50 [2]: inconclusive: 23 µM | AC50 [3]: inconclusive: 0.00147 µM | AC50 [4]: inconclusive: 39.3 µM

C[C@@H]1CC[C@H]2C(C)(C)[C@H]3C[C@@]12CC[C@@]3(C)O
AC50 [1]: inconclusive: 46 µM | AC50 [2]: inconclusive: 73.7 µM | outcome [3]: inactive | AC50 [4]: inconclusive: 75.1 µM | outcome [5]: inactive

Source: PubChem BioAssay (EPA / NIEHS)
